This passage reports binding results from patent publication US20030162221A1.

These are yes or no findings as the source states them, for the method shown. Binding seen in cells or lysates may run through a third protein. Some binding calls cover weakened binding; strength is not graded here. Tags and fused reporters may be left off the sequences shown.

Common to all, as to experiment: anti-FLAG co-IP, LC-MS/MS
For test [1], the target named is T1, Mcd1/Scc1 (Saccharomyces cerevisiae) (UniProt Q12158).
T1 sequence (looked up): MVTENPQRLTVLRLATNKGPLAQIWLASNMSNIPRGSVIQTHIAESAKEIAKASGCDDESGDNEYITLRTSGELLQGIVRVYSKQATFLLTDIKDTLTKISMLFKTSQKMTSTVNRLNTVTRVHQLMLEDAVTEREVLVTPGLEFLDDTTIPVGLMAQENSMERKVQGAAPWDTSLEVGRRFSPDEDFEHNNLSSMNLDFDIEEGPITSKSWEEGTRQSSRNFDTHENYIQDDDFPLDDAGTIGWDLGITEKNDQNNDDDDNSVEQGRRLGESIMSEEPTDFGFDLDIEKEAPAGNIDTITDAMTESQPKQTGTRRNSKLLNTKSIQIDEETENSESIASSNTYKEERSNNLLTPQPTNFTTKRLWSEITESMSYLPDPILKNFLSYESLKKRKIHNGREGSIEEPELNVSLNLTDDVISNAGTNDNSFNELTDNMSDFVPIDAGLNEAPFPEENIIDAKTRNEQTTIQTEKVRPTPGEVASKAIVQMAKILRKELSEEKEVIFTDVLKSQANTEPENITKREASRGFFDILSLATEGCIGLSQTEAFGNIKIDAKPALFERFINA

The target in test [2] is T2, Bem3 (Saccharomyces cerevisiae) (UniProt P32873).
T2 sequence (looked up): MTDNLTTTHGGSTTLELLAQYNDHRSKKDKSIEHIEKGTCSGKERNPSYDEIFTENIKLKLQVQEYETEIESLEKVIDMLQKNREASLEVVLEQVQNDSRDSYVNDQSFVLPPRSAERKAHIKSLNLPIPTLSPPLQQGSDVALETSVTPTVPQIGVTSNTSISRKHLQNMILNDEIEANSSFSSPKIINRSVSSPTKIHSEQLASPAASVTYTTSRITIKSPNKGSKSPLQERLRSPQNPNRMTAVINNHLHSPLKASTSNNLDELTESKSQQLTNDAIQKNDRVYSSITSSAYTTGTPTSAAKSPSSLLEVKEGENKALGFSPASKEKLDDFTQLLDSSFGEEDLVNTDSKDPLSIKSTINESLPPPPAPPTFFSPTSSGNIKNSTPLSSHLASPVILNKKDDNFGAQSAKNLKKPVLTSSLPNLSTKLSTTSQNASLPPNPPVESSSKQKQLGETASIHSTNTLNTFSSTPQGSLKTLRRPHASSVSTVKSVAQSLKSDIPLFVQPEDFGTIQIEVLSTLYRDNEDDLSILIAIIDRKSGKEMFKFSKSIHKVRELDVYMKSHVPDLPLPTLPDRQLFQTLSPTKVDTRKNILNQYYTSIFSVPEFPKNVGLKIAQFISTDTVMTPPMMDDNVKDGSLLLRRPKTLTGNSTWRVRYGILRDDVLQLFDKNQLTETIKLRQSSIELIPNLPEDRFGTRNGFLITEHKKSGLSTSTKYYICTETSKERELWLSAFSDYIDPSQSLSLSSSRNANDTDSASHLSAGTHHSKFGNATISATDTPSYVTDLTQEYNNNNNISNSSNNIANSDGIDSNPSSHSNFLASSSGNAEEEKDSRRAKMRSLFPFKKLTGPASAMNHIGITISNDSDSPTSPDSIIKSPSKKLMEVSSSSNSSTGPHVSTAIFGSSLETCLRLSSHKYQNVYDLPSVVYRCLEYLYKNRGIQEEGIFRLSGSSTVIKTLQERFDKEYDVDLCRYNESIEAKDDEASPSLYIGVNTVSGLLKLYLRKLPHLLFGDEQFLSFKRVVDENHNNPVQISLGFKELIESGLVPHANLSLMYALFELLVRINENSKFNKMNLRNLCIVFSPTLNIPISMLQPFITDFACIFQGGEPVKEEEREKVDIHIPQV

Test [3] deals with T3, Bck2 (Saccharomyces cerevisiae) (UniProt P33306).
T3 sequence (looked up): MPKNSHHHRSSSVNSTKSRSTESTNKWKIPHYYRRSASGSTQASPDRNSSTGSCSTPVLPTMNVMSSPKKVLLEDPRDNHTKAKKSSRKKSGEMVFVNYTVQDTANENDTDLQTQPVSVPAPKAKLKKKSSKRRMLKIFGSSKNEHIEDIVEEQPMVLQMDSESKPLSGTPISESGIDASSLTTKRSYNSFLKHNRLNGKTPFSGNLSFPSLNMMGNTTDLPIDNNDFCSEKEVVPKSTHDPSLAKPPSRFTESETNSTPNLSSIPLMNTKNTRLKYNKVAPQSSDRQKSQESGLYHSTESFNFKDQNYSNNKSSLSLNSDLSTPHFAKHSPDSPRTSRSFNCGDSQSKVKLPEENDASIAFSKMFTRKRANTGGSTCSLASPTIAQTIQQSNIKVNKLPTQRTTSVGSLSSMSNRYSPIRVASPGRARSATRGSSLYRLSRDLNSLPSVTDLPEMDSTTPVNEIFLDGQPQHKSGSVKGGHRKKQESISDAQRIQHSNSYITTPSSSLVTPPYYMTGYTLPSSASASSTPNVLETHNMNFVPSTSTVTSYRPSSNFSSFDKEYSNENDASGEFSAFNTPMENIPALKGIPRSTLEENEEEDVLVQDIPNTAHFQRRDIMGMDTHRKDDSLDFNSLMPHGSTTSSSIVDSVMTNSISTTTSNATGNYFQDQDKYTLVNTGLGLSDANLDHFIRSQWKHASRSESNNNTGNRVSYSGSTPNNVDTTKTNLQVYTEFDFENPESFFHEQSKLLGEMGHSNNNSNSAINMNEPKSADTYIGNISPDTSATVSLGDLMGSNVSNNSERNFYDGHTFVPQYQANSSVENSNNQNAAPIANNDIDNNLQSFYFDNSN

B1: Cdc5 (protein, Saccharomyces cerevisiae, UniProt P32562 1-705, looked up)
chain: MSLGPLKAINDKQLNTRSKLVHTPIKGNTADLVGKENHFKQTKRLDPNNDHHHQPAQKKKREKLSALCKTPPSLIKTRGKDYHRGHFLGEGGFARCFQIKDDSGEIFAAKTVAKASIKSEKTRKKLLSEIQIHKSMSHPNIVQFIDCFEDDSNVYILLEICPNGSLMELLKRRKVLTEPEVRFFTTQICGAIKYMHSRRVIHRDLKLGNIFFDSNYNLKIGDFGLAAVLANESERKYTICGTPNYIAPEVLMGKHSGHSFEVDIWSLGVMLYALLIGKPPFQARDVNTIYERIKCRDFSFPRDKPISDEGKILIRDILSLDPIERPSLTEIMDYVWFRGTFPPSIPSTVMSEAPNFEDIPEEQSLVNFKDCMEKSLLLESMSSDKIQRQKRDYISSIKSSIDKLEEYHQNRPFLPHSLSPGGTKQKYKEVVDIEAQRRLNDLAREARIRRAQQAVLRKELIATSTNVIKSEISLRILASECHLTLNGIVEAEAQYKMGGLPKSRLPKIKHPMIVTKWVDYSNKHGFSYQLSTEDIGVLFNNGTTVLRLADAEEFWYISYDDREGWVASHYLLSEKPRELSRHLEVVDFFAKYMKANLSRVSTFGREEYHKDDVFLRRYTRYKPFVMFELSDGTFQFNFKDHHKMAISDGGKLVTYISPSHESTTYPLVEVLKYGEIPGYPESNFREKLTLIKEGLKQKSTIVTVD
Regarding B1, the binding entry in test [1] is listed as “binds”.

B2: Kss1 (protein, Saccharomyces cerevisiae, UniProt P14681 1-368, looked up)
chain: MARTITFDIPSQYKLVDLIGEGAYGTVCSAIHKPSGIKVAIKKIQPFSKKLFVTRTIREIKLLRYFHEHENIISILDKVRPVSIDKLNAVYLVEELMETDLQKVINNQNSGFSTLSDDHVQYFTYQILRALKSIHSAQVIHRDIKPSNLLLNSNCDLKVCDFGLARCLASSSDSRETLVGFMTEYVATRWYRAPEIMLTFQEYTTAMDIWSCGCILAEMVSGKPLFPGRDYHHQLWLILEVLGTPSFEDFNQIKSKRAKEYIANLPMRPPLPWETVWSKTDLNPDMIDLLDKMLQFNPDKRISAAEALRHPYLAMYHDPSDEPEYPPLNLDDEFWKLDNKIMRPEEEEEVPIEMLKDMLYDELMKTME
Take B2: the binding entry in test [2] and in test [3] was “binds” throughout.
